In article PMC9697976, “Giardia lamblia G6PD::6PGL Fused Protein Inhibitors Decrease Trophozoite Viability: A New Alternative against Giardiasis” (International Journal of Molecular Sciences, 2022):

How the values were obtained:
Set-up in all cases: species or system Giardia lamblia
G6PD::6PGL protein [1] = assay: Intrinsic fluorescence assay of G6PD::6PGL; details: compound at IC50 concentration, 0.1 mg/mL protein, 2 h, 37 °C; for Maximum intrinsic fluorescence intensity: compound-free protein 874 a.u.
GlG6PD::6PGL protein = assay: Far-UV circular dichroism of G6PD::6PGL with compounds; details: compound at IC50 concentration, 0.4 mg/mL protein, 2 h, 37 °C
G6PD::6PGL protein [2] = assay: Extrinsic fluorescence (ANS) assay of G6PD::6PGL; details: compound at IC50 concentration, 0.1 mg/mL protein, 2 h, 37 °C

Row | SMILES | Loss of intrinsic fluorescence regarding compound-free enzyme (G6PD::6PGL protein [1]) | Maximum intrinsic fluorescence intensity (G6PD::6PGL protein [1]) | Loss of secondary structure (CD) with respect to compound-free protein (GlG6PD::6PGL protein) | Decrease in ANS fluorescence intensity regarding compound-free enzyme (G6PD::6PGL protein [2]) | Extrinsic (ANS) fluorescence intensity (G6PD::6PGL protein [2])
1 | O=C1NC(=O)C(=Cc2ccc(OCc3ccccc3)cc2)C(=O)N1 [CMC-1] | 20% | 695 a.u. | 70% |  | 
2 | CCCCOc1ccc(NC(=O)Nc2nc([N+](=O)[O-])cs2)cc1 [CNZ-7] | 67% | 276 a.u. | around 80% | 85% | 52 a.u.
3 | O=C(Nc1ccc([N+](=O)[O-])cc1)Nc1nc([N+](=O)[O-])cs1 [CNZ-8] | 67% | 276 a.u. | 70% | 56% | 155 a.u.
4 | CCCCCC(=O)Nc1nc([N+](=O)[O-])cs1 [FLP-2] | 80% | 171 a.u. | around 80% | 56% | 155 a.u.
